These are yes or no findings as the source states them, for the method shown. Some binding calls cover weakened binding; strength is not graded here.
T1: RalA (UniProt P11233 1-178, limits assumed)
T1 construct: also called RalA protein
T1 sequence: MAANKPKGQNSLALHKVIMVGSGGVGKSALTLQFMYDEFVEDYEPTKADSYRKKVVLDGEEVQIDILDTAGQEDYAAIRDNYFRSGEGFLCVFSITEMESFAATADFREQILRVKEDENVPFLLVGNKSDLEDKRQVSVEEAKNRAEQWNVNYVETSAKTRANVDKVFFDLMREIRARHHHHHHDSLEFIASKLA


Legend:
RalA [1] = target: T1, RalA; assay: statement in the description; data in FIG. 38A (yeast surface display)
RalA [2] = target: T1, RalA; assay: yeast surface display, flow cytometry; APC-A = labeled target, FITC-A = display level
RalA [3] = target: T1, RalA; assay: statement in the description; data in FIG. 38B (yeast surface display)

| binding (RalA [1]) | binding (RalA [2]) | binding (RalA [3]) | Binder |
| --- | --- | --- | --- |
| binds | binds | – | GPRRPRCPGDDASISDLLLYWLRLDRYLWAVA [RL01] |
| – | binds | binds | GPRRPRCPGDDASIRDLVMYWYRLYFYLEAVA [RR01] |

Source: patent US20170240604A1 (Harvard, published 2017)
